Experimental data reported in paper PMC7775463.
No constants are given. Whether binding was seen depends on the method and setting. In cells and extracts the contact can be indirect. Binding can be weak; no strength is given.

By UniProt entry, the sequences of proteins in these tests, tags left out. Where a name states a change or a piece, a line headed by the entry shows the natural chain unless it says otherwise.
UniProt A0AA48WN41: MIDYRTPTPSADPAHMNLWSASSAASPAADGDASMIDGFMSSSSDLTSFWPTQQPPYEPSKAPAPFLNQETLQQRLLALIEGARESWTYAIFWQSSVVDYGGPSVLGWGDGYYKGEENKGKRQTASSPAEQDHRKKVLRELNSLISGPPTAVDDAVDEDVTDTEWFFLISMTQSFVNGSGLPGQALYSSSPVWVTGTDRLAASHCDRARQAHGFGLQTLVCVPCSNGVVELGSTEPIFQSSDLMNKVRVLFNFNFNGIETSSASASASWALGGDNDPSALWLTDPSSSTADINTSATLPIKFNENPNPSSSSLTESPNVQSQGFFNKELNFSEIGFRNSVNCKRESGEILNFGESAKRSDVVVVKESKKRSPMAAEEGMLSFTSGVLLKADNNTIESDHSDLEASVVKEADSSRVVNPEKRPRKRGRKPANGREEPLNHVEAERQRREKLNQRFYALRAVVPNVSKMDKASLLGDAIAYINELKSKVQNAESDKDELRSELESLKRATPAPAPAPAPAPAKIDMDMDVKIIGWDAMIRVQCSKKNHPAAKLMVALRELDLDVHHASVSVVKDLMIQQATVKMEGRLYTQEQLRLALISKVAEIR

Target: SmMYB1-cYFP (Salvia miltiorrhiza)
Assay: split reporter; BiFC in 6-week-old N. benthamiana leaves; SmMYB1-cYFP and nYFP-SmMYC2 coexpressed by Agrobacterium infiltration; YFP examined by confocal microscopy 48 h after infiltration

binding: binds
Substance: nYFP-SmMYC2 (from UniProt A0AA48WN41)
